Measured values reported in patent US20090118471A1, “NOVEL COUMARIN DERIVATIVES” (The University of Tokyo, priority 2006, published 2009).
Some results were stated once for a whole list of compounds, not compound by compound. For at least one compound, name, drawing or mass did not settle the structure.

Assay: Fluorescence quantum yield before and after reaction with L-cysteine
Assay type: physicochemical
Details: before addition reaction with thiol group of cysteine; 10 μmol/L in 100 mmol/L sodium phosphate buffer pH 7.4, 0.1% DMSO; excitation 328 nm

SMILES | Fluorescence quantum yield
O=C1C=CC(=O)N1Cc1cc(=O)oc2cc(O)ccc12 [Compound 1] | lower than 0.05
O=C(CCN1C(=O)C=CC1=O)NCc1cc(=O)oc2cc(O)ccc12 [Compound 2] | lower than 0.05
